Results from article PMC11649690, “CEP signaling coordinates plant immunity with nitrogen status” (Nature Communications, 2024).
Results are given in words; binding and its absence hold for the method and conditions named.

Target: T1, RECEPTOR-LIKE KINASE 7 ectodomain (RLK7^ECD) (Arabidopsis thaliana) (UniProt F4I2N7)
T1 sequence: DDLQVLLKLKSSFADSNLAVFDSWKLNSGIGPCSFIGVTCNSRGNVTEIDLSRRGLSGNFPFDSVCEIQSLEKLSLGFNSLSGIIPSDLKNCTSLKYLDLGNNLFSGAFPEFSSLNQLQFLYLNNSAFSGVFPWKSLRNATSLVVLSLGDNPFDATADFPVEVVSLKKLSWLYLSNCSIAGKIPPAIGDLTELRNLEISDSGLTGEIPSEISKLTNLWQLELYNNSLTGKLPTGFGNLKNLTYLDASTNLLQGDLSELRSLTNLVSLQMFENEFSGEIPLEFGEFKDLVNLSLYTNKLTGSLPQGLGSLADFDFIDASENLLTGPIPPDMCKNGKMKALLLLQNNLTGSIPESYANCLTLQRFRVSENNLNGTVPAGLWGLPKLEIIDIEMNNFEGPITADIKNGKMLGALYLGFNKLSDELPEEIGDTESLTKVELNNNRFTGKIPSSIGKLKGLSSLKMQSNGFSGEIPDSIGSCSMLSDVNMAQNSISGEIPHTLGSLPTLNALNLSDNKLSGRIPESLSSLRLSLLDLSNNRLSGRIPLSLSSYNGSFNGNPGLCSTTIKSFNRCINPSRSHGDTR
Experiment: condition: 300 μM peptide injected into 30 μM receptor; ITC; 300 μM peptide in the syringe injected into 30 μM receptor ectodomain in the cell; 25 °C; 20 mM citrate pH 5.0, 150 mM NaCl (SEC buffer); N fitted to 1; duplicates; both purified

binding: no binding
B1: C-… ENCODED PEPTIDE 1 (CEP1) (peptide, UniProt Q8L8Y3 72-86, looked up)
peptide: DFRPTNPGNSPGVGH
notes: CEP1 peptide, the mature CEP domain cut from the CEP1 precursor, Arabidopsis thaliana; source: synthetic peptide (Pepmic, at least 90% purity)
